Reference: publication doi:10.1101/2025.08.26.672501
Like-named read-outs stand apart in the source and are kept apart here. These are yes or no findings as the source states them, for the method shown. Binding seen in cells or lysates may run through a third protein. Some binding calls cover weakened binding; strength is not graded here. Sequences can lack the tags named with a protein.

The chains behind the UniProt entries cited, without tags or fusion partners.
UniProt P62820: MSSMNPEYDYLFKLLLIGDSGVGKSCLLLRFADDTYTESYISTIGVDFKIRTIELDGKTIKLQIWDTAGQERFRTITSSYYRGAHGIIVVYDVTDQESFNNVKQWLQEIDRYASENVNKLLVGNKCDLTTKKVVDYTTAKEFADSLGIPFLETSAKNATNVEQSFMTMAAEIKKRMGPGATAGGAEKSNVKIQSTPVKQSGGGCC

How the values were obtained:
Assay in all cases: co-IP
Flag-GPAT4 (human) [1] = target: T1, Flag-GPAT4 (human) (UniProt Q86UL3)
T1 sequence: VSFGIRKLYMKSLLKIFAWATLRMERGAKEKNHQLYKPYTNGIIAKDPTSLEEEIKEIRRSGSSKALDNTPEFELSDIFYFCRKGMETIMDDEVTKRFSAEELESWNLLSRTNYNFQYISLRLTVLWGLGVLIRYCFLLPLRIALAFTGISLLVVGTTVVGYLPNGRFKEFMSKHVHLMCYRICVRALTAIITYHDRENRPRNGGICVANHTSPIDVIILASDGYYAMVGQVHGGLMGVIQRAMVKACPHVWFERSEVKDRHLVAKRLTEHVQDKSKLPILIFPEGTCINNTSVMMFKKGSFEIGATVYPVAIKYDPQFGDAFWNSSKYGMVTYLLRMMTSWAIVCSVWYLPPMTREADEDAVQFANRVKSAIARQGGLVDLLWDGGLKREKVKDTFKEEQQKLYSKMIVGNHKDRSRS

Flag-MBOAT7 (human) = target: T2, Flag-MBOAT7 (human) (UniProt Q96N66)
T2 sequence: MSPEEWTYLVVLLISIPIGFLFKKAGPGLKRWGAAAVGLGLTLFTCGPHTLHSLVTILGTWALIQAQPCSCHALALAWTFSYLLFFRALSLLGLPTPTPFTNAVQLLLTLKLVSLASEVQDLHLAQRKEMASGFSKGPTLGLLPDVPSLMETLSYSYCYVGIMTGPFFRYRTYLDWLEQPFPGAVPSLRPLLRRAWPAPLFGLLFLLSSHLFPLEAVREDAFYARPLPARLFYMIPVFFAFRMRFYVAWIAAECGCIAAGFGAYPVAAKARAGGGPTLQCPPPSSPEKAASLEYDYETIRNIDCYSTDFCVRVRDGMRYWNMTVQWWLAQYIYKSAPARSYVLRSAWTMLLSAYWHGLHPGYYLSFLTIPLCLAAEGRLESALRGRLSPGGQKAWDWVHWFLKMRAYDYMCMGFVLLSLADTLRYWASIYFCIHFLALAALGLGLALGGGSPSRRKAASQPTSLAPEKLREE

Flag-DGAT2 (human) [2] = target: T3, Flag-DGAT2 (human) (UniProt Q96PD7)
T3 sequence: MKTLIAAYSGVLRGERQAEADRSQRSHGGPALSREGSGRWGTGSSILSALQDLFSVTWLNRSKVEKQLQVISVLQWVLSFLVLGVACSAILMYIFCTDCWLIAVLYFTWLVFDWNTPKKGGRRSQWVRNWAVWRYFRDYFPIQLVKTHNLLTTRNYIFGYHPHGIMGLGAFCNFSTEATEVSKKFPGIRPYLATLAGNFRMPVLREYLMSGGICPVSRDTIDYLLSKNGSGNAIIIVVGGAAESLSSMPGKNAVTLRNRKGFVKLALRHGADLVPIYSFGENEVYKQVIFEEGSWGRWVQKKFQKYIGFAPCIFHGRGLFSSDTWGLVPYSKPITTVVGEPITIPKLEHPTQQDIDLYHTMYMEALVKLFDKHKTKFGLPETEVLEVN

Flag-GPAT4 (human) [3] = target: T1, Flag-GPAT4 (human); remark: listed apart in the source
Flag-DGAT2 (human) [4] = target: T3, Flag-DGAT2 (human); remark: listed apart in the source
Flag-GPAT4 (human) [5] = target: T1, Flag-GPAT4 (human); remark: listed apart in the source
Flag-DGAT2 (human) [6] = target: T3, Flag-DGAT2 (human); remark: listed apart in the source

- binding (Flag-GPAT4 (human) [1]): binds
- binding (Flag-MBOAT7 (human)): binds
- binding (Flag-DGAT2 (human) [2]): binds
- binding (Flag-GPAT4 (human) [3]): binds
- binding (Flag-DGAT2 (human) [4]): binds
- binding (Flag-GPAT4 (human) [5]): binds
- binding (Flag-DGAT2 (human) [6]): binds
Substance: GFP-RAB1A (from UniProt P62820 1-205)
